Results deposited as PubChem BioAssay AID1259308 (NCATS, 2017).
The deposit covers about 59,000 reagents; this is an unselected part. Over the whole deposit, about 1,510 (2.6%) were called active. 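Calls use total luciferase alone and ignore viability, so some active siRNAs may act by altering cell number.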 A number with no mark means an inactive call. Reagents against one gene are numbered here. Further read-outs or replicates are left out here. No sequences are given here.

Screen: 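Genes whose loss raises luciferase production in HEK293 cells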 (primary screen)
Cells: human HEK293 embryonic kidney cells stably expressing firefly luciferase (HEK-CMV-Luc2-Hygro)
Reagent: single siRNA against human genes, 0.8 pmol siRNA per well
Duration: 72 h
Measurement: 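Luciferase light (ONE-Glo) measured on one replicate plate set and viability (CellTiter-Glo) on the other, scaled to a negative control siRNA, with robust z-scores and luciferase per cell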
Direction: total luciferase, z-score: higher = more reporter protein produced
Call rule: 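Active when the median/MAD z-score for overall luciferase is greater than 3; a gene was taken forward for validation with new siRNAs if at least two of its three siRNAs passed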
Calls: active = raised luciferase; inactive = no rise

After knock-down of LOC440386 (retired record) #1, the record shows total luciferase, z-score 2.35.
After knock-down of LOC440386 (retired record) #2, the record shows total luciferase, z-score -1.75.
LOC440386 (retired record) #3 scored total luciferase, z-score 1.15.
For TYRP1 (tyrosinase related protein 1) #1, the values are total luciferase, z-score -0.779.
Depletion of TYRP1 (tyrosinase related protein 1) #2 gave: total luciferase, z-score -0.594.
After knock-down of TYRP1 (tyrosinase related protein 1) #3, the screen gave total luciferase, z-score 3.23 (active).
Knock-down of PCDH11Y (protocadherin 11 Y-linked) #1 came out at: total luciferase, z-score -0.622.
Silencing of PCDH11Y (protocadherin 11 Y-linked) #2 gave: total luciferase, z-score -0.083.
PCDH11Y (protocadherin 11 Y-linked) #3 showed total luciferase, z-score -0.00184.
With knock-down of SHANK2 (SH3 and multiple ankyrin repeat domains 2) #1 the results were total luciferase, z-score 0.269.
Against SHANK2 (SH3 and multiple ankyrin repeat domains 2) #2, the entry reads total luciferase, z-score -0.0339.
SHANK2 (SH3 and multiple ankyrin repeat domains 2) #3 showed total luciferase, z-score -0.723.
For UBE2J1 (ubiquitin conjugating enzyme E2 J1) #1, the values are total luciferase, z-score -0.328.
Against UBE2J1 (ubiquitin conjugating enzyme E2 J1) #2, the values are total luciferase, z-score 0.146.
With knock-down of UBE2J1 (ubiquitin conjugating enzyme E2 J1) #3, the record shows total luciferase, z-score 0.24.
For FMC1 (formation of mitochondrial complex V assembly factor 1) #1, the entry reads total luciferase, z-score 1.52.
With knock-down of FMC1 (formation of mitochondrial complex V assembly factor 1) #2, the screen gave total luciferase, z-score 2.74.
After knock-down of FMC1 (formation of mitochondrial complex V assembly factor 1) #3, the record shows total luciferase, z-score -0.561.
For CKS2 (CDC28 protein kinase regulatory subunit 2) #1 the deposit lists total luciferase, z-score -0.541.
With knock-down of CKS2 (CDC28 protein kinase regulatory subunit 2) #2, the record shows total luciferase, z-score 0.0551.
Depletion of CKS2 (CDC28 protein kinase regulatory subunit 2) #3 resulted in: total luciferase, z-score -0.109.

2 consecutive reagents from above:
CKS2 (CDC28 protein kinase regulatory subunit 2) #1 — total luciferase, z-score = -0.541
CKS2 (CDC28 protein kinase regulatory subunit 2) #2 — total luciferase, z-score = 0.0551
